# Cleaved PARP after 72 h of treatment

From a melanoma drug combination screen (doi:10.1371/journal.pone.0140310); values rounded.

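Human melanoma cells were exposed to two drugs together for 72 h in 1,536-well plates and read by automated microscopy after fixing and staining. Values are the share of nuclei positive for cleaved PARP as a percentage of the same share in the DMSO control: 100 is the control level, higher means more apoptosis. Concentrations were fixed for each drug; these are the higher of two levels. These are primary screening values without error estimates. The marker varies much from line to line, for technical or biological reasons.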
This is part of the screen, not chosen by result.

Drug key:
embelin, 6 µM: CCCCCCCCCCCC1=C(O)C(=O)C=C(O)C1=O
tanespimycin, 0.01 µM: C=CCNC1=C2C[C@@H](C)C[C@H](OC)[C@H](O)[C@@H](C)/C=C(\C)[C@H](OC(N)=O)[C@@H](OC)/C=C\C=C(/C)C(=O)NC(=CC1=O)C2=O
lestaurtinib, 0.02 µM: C[C@]12O[C@H](C[C@]1(O)CO)n1c3ccccc3c3c4c(c5c6ccccc6n2c5c31)CNC4=O
lenalidomide, 5 µM: Nc1cccc2c1CN(C1CCC(=O)NC1=O)C2=O (stereo not shown)
KU-0063794, 0.1 µM: COc1ccc(-c2ccc3c(N4CCOCC4)nc(N4C[C@@H](C)O[C@@H](C)C4)nc3n2)cc1CO
dasatinib, 0.02 µM: Cc1nc(Nc2ncc(C(=O)Nc3c(C)cccc3Cl)s2)cc(N2CCN(CCO)CC2)n1
STA-4783, 0.03 µM: CN(NC(=O)CC(=O)NN(C)C(=S)c1ccccc1)C(=S)c1ccccc1
A-769662, 10 µM: N#Cc1c(O)c2c(-c3ccc(-c4ccccc4O)cc3)csc2[nH]c1=O

* KU-0063794 + lenalidomide : WM451Lu: 112; COLO 800: 115; MEL-HO: 106
* lenalidomide + A-769662 : WM451Lu: 81.3; COLO 800: 149; MEL-HO: 51.9
* STA-4783 + A-769662 : WM451Lu: 127; COLO 800: 378; MEL-HO: 29.3
* KU-0063794 + STA-4783 : WM451Lu: 277; COLO 800: 166; MEL-HO: 42.9
* tanespimycin + KU-0063794 : WM451Lu: 331; COLO 800: 78.8; MEL-HO: 608
* lestaurtinib + lenalidomide : WM451Lu: 164; COLO 800: 166; MEL-HO: 48.5
* embelin + dasatinib : WM451Lu: 142; COLO 800: 48.0; MEL-HO: 33.2
* embelin + lestaurtinib : WM451Lu: 55.1; COLO 800: 341; MEL-HO: 55.1
* KU-0063794 + dasatinib : WM451Lu: 151; COLO 800: 242; MEL-HO: 61.5
* A-769662 + tanespimycin : WM451Lu: 507; COLO 800: 178; MEL-HO: 60.3
* embelin + tanespimycin : WM451Lu: 1140; COLO 800: 252; MEL-HO: 237
* lenalidomide + dasatinib : WM451Lu: 115; COLO 800: 128; MEL-HO: 114
* STA-4783 + lestaurtinib : WM451Lu: 135; COLO 800: 303; MEL-HO: 169
* lenalidomide + embelin : WM451Lu: 29.0; COLO 800: 81.8; MEL-HO: 55.8
* dasatinib + lestaurtinib : WM451Lu: 43.7; COLO 800: 354; MEL-HO: 121
* embelin + KU-0063794 : WM451Lu: 74.5; COLO 800: 65.4; MEL-HO: 27.6
* embelin + STA-4783 : WM451Lu: 187; COLO 800: 153; MEL-HO: 70.1
* lenalidomide + tanespimycin : WM451Lu: 128; COLO 800: 117; MEL-HO: 112
* KU-0063794 + lestaurtinib : WM451Lu: 162; COLO 800: 115; MEL-HO: 55.3
* dasatinib + STA-4783 : WM451Lu: 190; COLO 800: 322; MEL-HO: 206
* lenalidomide + STA-4783 : WM451Lu: 152; COLO 800: 732; MEL-HO: 86.5
* dasatinib + tanespimycin : WM451Lu: 267; COLO 800: 124; MEL-HO: 50.5
* A-769662 + embelin : WM451Lu: 42.6; COLO 800: 76.4; MEL-HO: 26.6

3 of the entries, repeated:

| Pair | WM451Lu | COLO 800 | MEL-HO |
|---|---|---|---|
| dasatinib + lestaurtinib | 43.7 | 354 | 121 |
| KU-0063794 + lenalidomide | 112 | 115 | 106 |
| KU-0063794 + STA-4783 | 277 | 166 | 42.9 |